Reference: doi:10.1101/2021.11.25.470006 (bioRxiv, 2021)
Results are given in words; binding and its absence hold for the method and conditions named.

T1: Smc6 (Walker B mutant E1048Q) (S. cerevisiae), Q12749
T1 chain: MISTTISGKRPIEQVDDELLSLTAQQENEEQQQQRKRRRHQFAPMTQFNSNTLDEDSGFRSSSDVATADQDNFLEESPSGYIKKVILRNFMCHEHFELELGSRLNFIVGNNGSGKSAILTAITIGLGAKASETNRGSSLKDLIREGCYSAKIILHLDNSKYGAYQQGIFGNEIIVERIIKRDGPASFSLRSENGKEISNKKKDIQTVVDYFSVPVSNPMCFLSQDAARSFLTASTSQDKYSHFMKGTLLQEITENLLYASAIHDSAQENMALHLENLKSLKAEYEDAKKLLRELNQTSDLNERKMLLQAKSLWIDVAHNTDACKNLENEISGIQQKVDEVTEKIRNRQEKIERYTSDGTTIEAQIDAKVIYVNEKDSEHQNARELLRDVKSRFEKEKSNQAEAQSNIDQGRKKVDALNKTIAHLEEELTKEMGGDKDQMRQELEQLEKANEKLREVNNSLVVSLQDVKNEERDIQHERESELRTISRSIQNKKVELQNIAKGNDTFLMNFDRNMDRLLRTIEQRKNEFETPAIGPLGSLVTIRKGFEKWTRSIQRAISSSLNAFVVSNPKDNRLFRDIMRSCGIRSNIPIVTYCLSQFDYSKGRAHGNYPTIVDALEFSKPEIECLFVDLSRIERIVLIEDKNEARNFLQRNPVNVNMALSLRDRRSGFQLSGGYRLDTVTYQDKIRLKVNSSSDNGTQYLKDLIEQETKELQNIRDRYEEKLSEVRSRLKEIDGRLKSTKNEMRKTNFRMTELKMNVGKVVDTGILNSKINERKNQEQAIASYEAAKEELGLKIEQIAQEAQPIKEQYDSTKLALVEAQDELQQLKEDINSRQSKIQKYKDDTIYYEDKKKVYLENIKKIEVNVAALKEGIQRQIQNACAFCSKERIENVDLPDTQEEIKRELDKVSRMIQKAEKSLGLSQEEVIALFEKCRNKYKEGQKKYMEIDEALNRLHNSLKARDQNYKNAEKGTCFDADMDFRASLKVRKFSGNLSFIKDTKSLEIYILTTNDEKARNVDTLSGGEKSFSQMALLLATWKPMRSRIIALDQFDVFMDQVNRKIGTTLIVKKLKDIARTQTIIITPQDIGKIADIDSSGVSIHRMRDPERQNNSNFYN

B1: Nse1, Q07913 1-336 (protein)
chain: MEVHEEQVSAPVTGDATAKYLLQYILSARGICHENALILALMRLETDASTLNTEWSIQQWVDKLNDYINAINVKLNLLGYKIIRINHGIGRNAVTLKAKQNFESFEDNTAIRAHNNDYAVLQSIVLPESNRFFVYVNLASTEETKLATRFNQNEIEFMKWAIEQFMISGETIVEGPALETSIIVKEVNRILVAATGDSNLAKWRKFSTFTVGSTNLFQFQELTATDIEDLLLRLCELKWFYRTQEGKFGIDLRCIAELEEYLTSMYNLNTCQNCHKLAIQGVRCGNESCREENEETGENSLSQIWHVDCFKHYITHVSKNCDRCGSSLITEGVYVI
modifications: here or on the partner: BS3-crosslinked within the holo-complex; BS3-crosslinked within the holo-complex
B2: Nse3, Q05541 1-303 (protein)
chain: MSSIDNDSDVDLTEDLAVAKIVKENPVARKMVRYILSRGESQNSIITRNKLQSVIHEAAREENIAKPSFSKMFMDINAILYNVYGFELQGLPSKNNMNAGGNGSNSNTNKSMPEPLGHRAQKFILLNNVPHSKNFDDFKILQSAHTYEELIVTGEYIGDDIASGTSNTLESKLSTDRDLVYKGVLSVILCIVFFSKNNILHQELIKFLETFGIPSDGSKIAILNITIEDLIKSLEKREYIVRLEEKSDTDGEVISYRIGRRTQAELGLESLEKLVQEIMGLEKEQTKSLHDDIIKSIGDSYSI
modifications: here or on the partner: BS3-crosslinked within the holo-complex; BS3-crosslinked within the holo-complex

Target: T1, Smc6 (Walker B mutant E1048Q) (S. …)
Experiment: cryo-EM structure
Details: remark: other sources report otherwise

| Binder | binding |
| --- | --- |
| B1 | no binding |
| B2 | no binding |
